Reference: PubChem BioAssay AID504834 (National Center for Advancing Translational Sciences (NCATS), 2011)
Several values for one entry are separate records, joined by “and”; a condition that tells them apart may be missing. Identical values can stand only once. The campaign covered roughly 320,000 compounds. About 22,000 (6.9%) were called active. The inconclusive results got no clear call from the source; some entries with a clear call stand among them for comparison. Calls come from the whole dose curve; as a rule, active = well fitted inhibition curve with a large enough effect; inconclusive = small, poorly fitted or top-dose-only effect, or another doubt; inactive = no such curve, though single readings can be large or run the other way. Potencies beside an inconclusive call are fits to weak or partial responses and may not hold up.

experiment: Primary qHTS for delayed death inhibitors of the malarial parasite plastid, 96 hour incubation; conditions: P. falciparum luciferase reporter growth; series mostly up to 28.7 µM
Summary of the method: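 Readout is luminescence from an integrated firefly luciferase in P. falciparum. Red cells, 2% hematocrit and 0.05% parasitemia final, were cultured with compound through two parasite generations (96 hours) at 37 C, 5% CO2.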
Potency is the fitted concentration of half-maximal effect.

| Structure (SMILES) | Potency |
| --- | --- |
| C#CCCOC(=O)Nc1ccccc1 | inconclusive: 2.62 µM [inhibitor, partial curve, poor fit] |
| COc1ccccc1N1CCN(/N=C/c2ccc(O)cc2O)CC1 | inconclusive: 18.5 µM [inhibitor, single point] |
| O=C1C2C(c3cccc(/C=C/c4ccccc4)c3)CC=CC2C(c2ccc(C(F)(F)F)cc2)N1Cc1ccccc1 (configuration not stated) | active: 9.28 µM |
| CC1CCCN(CCCNC(=O)CN2C(=O)COc3ccc(S(=O)(=O)N4CCOCC4)cc32)C1 (configuration not stated) | inconclusive: 18.5 µM [inhibitor, single point] |
| COc1ccc(NC(=O)c2ccc(CN3CCc4ccccc4C3)cc2)cc1OC | inconclusive: 16.5 µM [inhibitor, single point] |
| O=C(NCCCN1CCCC1)c1ccc(CS(=O)(=O)c2ccc(Cl)cc2)o1 | inconclusive: 18.5 µM [inhibitor, single point] |
| COc1cc(NC(=O)c2csc3c2CCCC3)ncn1 | inconclusive: 18.5 µM [inhibitor, single point] |
| CS/C(=N/S(=O)(=O)c1ccc(C)cc1)c1ccccc1 | inconclusive: 10.4 µM [inhibitor, single point] |
| Cc1cc(C)nc(-n2cc(C(=O)c3cc(F)ccc3O)cn2)n1 | inconclusive: 0.329 µM [inhibitor, full curve] |
| CCc1nc(-c2ccc(OC)c(OC)c2)cc2cc(OC)c(OC)cc12 | active: 9.28 µM |
| COc1ccccc1N1CCN(CC(C)N(C(=O)C2CCCCC2)c2ccccn2)CC1 (configuration not stated) | inconclusive: 13.1 µM [inhibitor, single point] |
| O=C(NCCc1c[nH]c2ccccc12)c1ccco1 | inactive |
| O=C(Cc1cccs1)Nc1ccccc1F | inactive |
| COCCN1C=C2C(=O)C(C)(OC(=O)C3CCCC3)C(=O)C=C2C=C1c1ccsc1 (configuration not stated) | inactive |
| Cc1ccccc1NC(=S)N(Cc1ccccc1)Cc1cccs1 | inconclusive: 10.4 µM [inhibitor, single point] |
| OC(COc1ccccc1)CN1CCOCC1 (configuration not stated) | active: 11.7 µM |
| C=CCn1c(SCc2ccc(C#N)cc2)nnc1-c1ccc(C)cc1 | active: 11.7 µM |
| Cc1cc(C)cc(NC(=O)c2ccccc2CC[N+](=O)[O-])c1 | inactive |
| CCN(CC)CCOC(=O)c1ccc(N)cc1 | inactive and inconclusive: 4.1 nM [inhibitor, full curve, poor fit] |
| COc1ccc(C(CNC(=O)C(C)Oc2ccc(Br)cc2)N2CCOCC2)cc1 (configuration not stated) | inconclusive: 11.7 µM [inhibitor, single point] |
| O=C(Cc1ccc(F)cc1)Nc1cccc(-c2cn3c(n2)SCC3)c1 | inactive |
| CCCCN(C)C(=O)c1nc2ccccn2c1CNC1CCC1 | inconclusive: 10.4 µM [inhibitor, single point] |
| COc1ccc(S(=O)(=O)n2cnc3ccccc32)c(C)c1 | inactive |
| CC1=C(C(=O)Nc2cccc(C(=O)N3CCN(c4cccc(C(F)(F)F)c4)CC3)c2)SCCO1 | inconclusive: 18.5 µM [inhibitor, single point] |

| Structure (SMILES) | Potency |
| --- | --- |
| COC(=O)c1c(NC(=O)c2ccco2)sc2c1CCN(C(C)=O)C2 | inconclusive: 2.62 µM [inhibitor, full curve] |
| Cn1c(=O)c2c(nc(NC(Cc3ccccc3)C(=O)O)n2Cc2ccccc2)n(C)c1=O (configuration not stated) | inactive |
| C=CCSc1nnc2c(n1)OC=Nc1ccccc1-2 | inactive |
| CC(C)CC(NC(=O)c1ccccc1)C(=O)OCC(=O)Nc1ccc(Br)cn1 (configuration not stated) | inactive |
| CN(c1ccccc1)S(=O)(=O)c1cccc(NC(=O)COc2ccccc2)c1 | inconclusive: 18.5 µM [inhibitor, single point] |
| COc1ccc(S(=O)(=O)NC2CC2)cc1Cl | active: 2.33 µM |
| COc1ccc(N(CC(=O)NCc2ccccc2)C(=O)CCC(=O)Nc2cc(C)ccn2)c(OC)c1 | active: 0.465 µM |
| CCn1cc(Cl)c(C(=O)N2N=C3/C(=C/c4cccs4)CCCC3C2c2cccs2)n1 (configuration not stated) | inconclusive: 4.65 µM [inhibitor, partial curve] |
| CCOc1ccc(CCNC(=O)COC(=O)/C=C/c2ccc(OC(F)F)c(OC)c2)cc1OCC | inconclusive: 18.5 µM [inhibitor, single point] |
| CCOC(=O)C1(Cc2ccccc2C)CCCN(C(=O)c2ccc(CSC)o2)C1 (configuration not stated) | inconclusive: 13.1 µM [inhibitor, single point] |
| COc1ccc(/C=C2\N=C3CCCCCN3C2=O)cc1OC | inactive |
| CCCN1CCN(C(=O)C(NC(=O)c2ccco2)C(C)C)CC1 (configuration not stated) | inactive |
| CCN(CC)CCn1c2c(c(SCC(=O)Nc3ccc(C(C)C)cc3)nc1=O)CCC2 | active: 4.15 µM |
| CCC(C)N1CCC2(CC1)N=c1c(c3c4c5c(C)c(O)c3c(O)c1=NC(=O)C(C)=CC=C[C@H](C)[C@H](O)[C@@H](C)[C@@H](O)[C@@H](C)[C@H](OC(C)=O)[C@H](C)[C@@H](OC)C=CO[C@@](C)(O5)C4=O)N2 (some centres not stated) | inconclusive: 3.7 µM [inhibitor, single point] |
| CCOc1ccc(OCC)c(NC(=O)CN2CCN(c3ccc(C)cc3C)CC2)c1 | inactive |
| COc1ccc(N2C(=O)C(CC(=O)Nc3ccc(F)cc3)N(CCc3ccc(OC)c(OC)c3)C2=O)cc1 (configuration not stated) | inactive |
| CCc1noc(C)c1C(=O)Nc1nc2c(C)cccc2s1 | inactive |
| Cn1c2ccccc2c2c(C(=O)NCC3CCCO3)cn(C3CCCC3)c(=O)c21 (configuration not stated) | active: 4.15 µM |
| Cc1csc(NC(=O)C(NS(=O)(=O)c2ccc(Br)s2)c2ccccc2)n1 (configuration not stated) | inconclusive: 18.5 µM [inhibitor, single point] |
| CCOc1cc(C=O)ccc1OCC(=O)N1CCCC1 | inactive |
| Cc1[nH]c2ccccc2c1CN1CCC(CO)(Cc2ccccc2)CC1 | inconclusive: 9.28 µM [inhibitor, single point] |
| Cc1ccc(NCc2n[nH]c(=S)n2-c2cccc(Cl)c2)cc1 | inconclusive: 11.7 µM [inhibitor, partial curve, poor fit] |
| O=C1CN(C(=O)c2cccc(F)c2)C(c2ccc(F)cc2)c2cc(F)ccc2N1 (configuration not stated) | inconclusive: 7.38 µM [inhibitor, partial curve, poor fit] |
